Test results: article doi:10.1101/269647
Read-outs that look alike come from different tables or passages of the source. These are yes or no findings as the source states them, for the method shown. In cells and extracts the contact can be indirect. Some binding calls cover weakened binding; strength is not graded here. For some assays here: Where a sequence is shown, tags or fusion partners need not be part of it. Each block holds one molecule with its values, some of them ahead of it.

Amino acid sequences for entries named in this document (tags omitted).
UniProt Q38912: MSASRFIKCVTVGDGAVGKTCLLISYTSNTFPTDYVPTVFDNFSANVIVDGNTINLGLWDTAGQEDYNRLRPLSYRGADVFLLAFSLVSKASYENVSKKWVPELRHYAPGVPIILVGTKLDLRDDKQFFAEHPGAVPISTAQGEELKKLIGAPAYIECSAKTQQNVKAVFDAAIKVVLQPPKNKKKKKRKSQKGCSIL

Legend:
MBP-GEF14 (Arabidopsis) [1] = target: T1, MBP-GEF14 (Arabidopsis) (UniProt Q56WM6); experiment: pull-down
T1 sequence: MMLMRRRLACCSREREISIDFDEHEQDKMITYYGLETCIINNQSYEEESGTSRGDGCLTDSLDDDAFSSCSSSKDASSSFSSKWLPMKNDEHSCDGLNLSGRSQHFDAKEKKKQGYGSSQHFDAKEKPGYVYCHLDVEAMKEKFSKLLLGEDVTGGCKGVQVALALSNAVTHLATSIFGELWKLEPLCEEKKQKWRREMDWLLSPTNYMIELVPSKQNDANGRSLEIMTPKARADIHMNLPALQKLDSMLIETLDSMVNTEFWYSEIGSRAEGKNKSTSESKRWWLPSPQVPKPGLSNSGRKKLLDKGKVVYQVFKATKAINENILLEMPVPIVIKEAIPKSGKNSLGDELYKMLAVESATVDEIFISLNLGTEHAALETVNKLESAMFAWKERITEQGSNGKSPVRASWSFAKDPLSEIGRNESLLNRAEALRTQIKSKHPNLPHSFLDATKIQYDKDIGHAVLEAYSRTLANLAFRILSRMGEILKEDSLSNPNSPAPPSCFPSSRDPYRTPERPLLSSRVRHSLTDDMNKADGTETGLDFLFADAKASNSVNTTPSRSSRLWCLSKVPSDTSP

[2] = target: FER-GFP (Arabidopsis (Col-0)) (UniProt Q9SCZ4); experiment: co-IP
[3] = target: T2, RopGEF14-4xMyc (Arabidopsis (Col-0)) (UniProt Q56WM6); experiment: co-IP
T2 sequence: T1 sequence

[4] = target: FERONIA (FER), endogenous (Arabidopsis (endogenous in seedlings)) (UniProt Q9SCZ4); experiment: co-IP
MBP-GEF14 (Arabidopsis) [5] = target: T1, MBP-GEF14 (Arabidopsis); experiment: pull-down; remark: listed apart in the source

- binding (MBP-GEF14 (Arabidopsis) [1]): binds
- binding [2]: binds
Molecule: ROP6-Flag (from UniProt Q38912 1-198)

- binding [3]: binds
Molecule: ROP6, endogenous (from UniProt Q38912 1-198)

- binding [4]: binds
B1: GFP-RopGEF14 (protein, UniProt Q56WM6 1-576)
chain: T1 sequence

- binding (MBP-GEF14 (Arabidopsis) [5]): no binding
B2: FER-ECD-HA (domain or fragment, UniProt Q9SCZ4 28-447)
chain: ADYSPTEKILLNCGGGASNLTDTDNRIWISDVKSKFLSSSSEDSKTSPALTQDPSVPEVPYMTARVFRSPFTYTFPVASGRKFVRLYFYPNSYDGLNATNSLFSVSFGPYTLLKNFSASQTAEALTYAFIIKEFVVNVEGGTLNMTFTPESAPSNAYAFVNGIEVTSMPDMYSSTDGTLTMVGSSGSVTIDNSTALENVYRLNVGGNDISPSADTGLYRSWYDDQPYIFGAGLGIPETADPNMTIKYPTGTPTYVAPVDVYSTARSMGPTAQINLNYNLTWIFSIDSGFTYLVRLHFCEVSSNITKINQRVFTIYLNNQTAEPEADVIAWTSSNGVPFHKDYVVNPPEGNGQQDLWLALHPNPVNKPEYYDSLLNGVEIFKMNTSDGNLAGTNPIPGPQVTADPSKVLRPTTRKSKSNTA
